## Primary screen of a compound library

By UniProt entry, the sequences of proteins in these tests, tags left out. Residues count along the entry.
UniProt Q8IDJ8, 1-583: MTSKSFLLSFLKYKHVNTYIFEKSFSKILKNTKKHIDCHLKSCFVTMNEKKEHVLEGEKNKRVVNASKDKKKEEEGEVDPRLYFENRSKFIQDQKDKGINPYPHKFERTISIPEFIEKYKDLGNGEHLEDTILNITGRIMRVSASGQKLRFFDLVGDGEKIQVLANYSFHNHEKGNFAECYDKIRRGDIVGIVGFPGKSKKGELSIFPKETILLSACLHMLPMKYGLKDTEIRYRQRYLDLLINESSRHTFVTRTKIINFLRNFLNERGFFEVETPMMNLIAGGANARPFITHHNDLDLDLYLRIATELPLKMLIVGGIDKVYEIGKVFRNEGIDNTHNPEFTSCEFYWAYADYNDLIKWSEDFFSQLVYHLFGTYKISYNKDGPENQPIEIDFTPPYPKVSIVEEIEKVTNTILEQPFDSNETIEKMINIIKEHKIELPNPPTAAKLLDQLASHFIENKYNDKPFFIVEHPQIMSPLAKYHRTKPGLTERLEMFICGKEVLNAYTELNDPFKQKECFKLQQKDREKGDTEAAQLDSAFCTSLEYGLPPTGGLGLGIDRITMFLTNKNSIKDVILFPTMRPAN

Data taken from ChEMBL document CHEMBL3988442, “University of Dundee, Small-Polar-MMV Screening Library” (2021).

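Lysine-tRNA ligase, Plasmodium falciparum 3D7 (UniProt Q8IDJ8). Enzyme assay of the cytosolic lysyl-tRNA synthetase in 384-well plates, read by luminescence. Tested at 30 µM. Higher reads as stronger inhibition, judged from the few compounds that gave an IC50. Size under these conditions: about 69,000 compounds, about 49 of them at 50% or above in at least one test.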

Values are the deposited “Percent Effect”, in %.
How 0% and 100% were set is not recorded. Most values in the screen are low, and negative values occur.
Compounds were drawn at random from those tested, without regard to their results.

CC(C)CNC(=O)c1ccc2c(=O)n(-c3ccccc3)cnc2c1 read 7.133%. Result for COCCNC(=O)[C@H]1CN(c2nnc(C)s2)C[C@H]2OCC[C@@H]12 was 1.037%. For CN(CC(=O)N1CCCC1c1cnn(C)c1)c1ccc(Cl)cn1 (stereo not drawn) the result was 5.554%. CCN(CC)CCSc1nnc(N2CCN(c3ccccc3)CC2)s1 gave 7.375%.

With Cc1cc(OCC(=O)N2CCCC(c3nc(C)c(C)s3)C2)no1 (stereo not drawn) the screen gave -0.3555%. CCCN(Cc1ccccc1O)C(=O)Nc1cnn(CCOC)c1 gave -2.449%. COc1ccc(OC)c(CNC2CCCN(c3cccnn3)C2)c1 (stereo not drawn) read 0.1939%. With Cc1nc(CN2CCN(Cc3cc4n(n3)CCNC4)CC2)cs1 the screen gave -1.679%.

Result for Cc1cc(NC(=O)CN2CCCC2c2c(C)nn(C)c2C)on1 (stereo not drawn) was -0.09227%. For Cc1noc(C)c1CN1CCc2ncnc(-c3cnn(C)c3)c2CC1 the result was 4.916%. Cc1ncsc1CN1CC[C@H]2OCC[C@@]2(C(=O)N2CCCO2)C1 gave 4.945%. Cc1nc(N2CCCC2)ncc1-c1cc(O)nc(NCC2CCCO2)n1 (stereo not drawn) gave 0.8444%.

With O=C(CN1C=Nc2ccccc2S1(=O)=O)NCCCc1ccccc1 the screen gave 0.03969%. With COCC(=O)N1CCC(Cc2nccnc2-c2c(C)n[nH]c2C)C1 (stereo not drawn) the screen gave -1.303%. COc1ccc(CNC(C)Cn2cccn2)cc1OC (stereo not drawn) read 3.739%. With CC(=O)NC1(C(=O)N(C)Cc2c(C)noc2C)CCCCC1 the screen gave 0.2072%.

With COCCNC(=O)Cn1ccc2ccc(F)cc21 the screen gave 3.079%. Result for CC(C)N1CCCc2sc(C(=O)NC3CC3)nc21 was 0.8241%. Result for O=C1COC2(CCN(C(=O)C3CC=CC3)CC2)CN1Cc1cccnc1 was 4.321%. OCC(CO)N1CCCC(Cc2ccnc(Nc3ccccn3)c2)C1 (stereo not drawn) gave -0.7683%.

With COC[C@@]12CCC[C@@H]1CN(C(=O)Cc1ccccn1)C2 the screen gave -1.297%. Result for O=C(CC1CC1)N1CCC2(CC1)CN(Cc1cccnc1)C(=O)CO2 was 3.076%. Result for Cc1ccc(CNC(=O)C2CCN(C(=O)C(C)C)CC2)n1C was 7.223%. CC(C)Cc1cc(CNC(=O)c2cccc3c2NCCC3)no1 read -5.789%.

CCn1c(C)cc(C(=O)N2CCCC(n3nc(C)nc3C)C2)c1C (stereo not drawn) read 1.876%. CNc1ccc(CC2CCCN(C(=O)c3cnc(C)nc3)C2)nn1 (stereo not drawn) read -0.5846%. CC[C@H]1N(Cc2ccco2)CCC[C@]12CCC(=O)N2C read 3.829%. Result for O=C(NC1CC1)[C@@H]1CCO[C@@H]2CCN(CC3CCC3)C[C@@H]21 was 4.934%.

Result for Cc1ccc(F)c2c1CCCN2C(=O)c1cn(CC(=O)N(C)C)nn1 was -3.469%. COc1ccc(SC(C)C(=O)N2CCC(NC(=O)C3CC3)CC2)cc1 (stereo not drawn) read 1.669%. O=C(c1ccc2c(c1)CCO2)N1CCN(c2cnccn2)CC1 read -0.4745%. With Cn1nnc2c1C(COCC1CC1)CN(C(=O)Cc1ccsc1)C2 (stereo not drawn) the screen gave 2.354%.

For O=S(=O)(Nc1cnc(N2CCOCC2)nc1)c1ccc(C(F)(F)F)cc1 the result was 10.1%. c1ccc(CN2CCCC2)c(CNc2cncc3nnnn23)c1 read 7.395%. Result for COc1cccc([C@H]2CN(C(=O)c3noc4c3CCCC4)C[C@@H]2N)c1 was 3.845%. CCN(CC)C(=O)c1nc2c(s1)CCN(C(=O)Nc1ccccc1)CC2 read 3.381%.

CCCNC(=O)CN1CCN(Cc2csc(C(C)(C)C)n2)CC1 read -0.3437%. Result for Cc1cc(C(=O)N2CC[C@H]3[C@H](C[C@@H](CN4CCCC4)N3C)C2)c(C)o1 was 2.651%. With Cc1nc(CN2CCN(C(=O)c3sccc3C3CC3)CC2)oc1C the screen gave -0.2709%. Result for CCc1c(C)nn(C)c1NC(=O)N1CCCOC(Cn2cccn2)C1 (stereo not drawn) was 3.136%.

CCNc1ccnc(N2Cc3cnc(CC(C)C)nc3C2)n1 gave 0.5605%. For CN(C)CCCNC(=O)c1nnsc1-c1ccccc1 the result was 5.914%. CC(C(=O)Nc1ccnn1C(C)C)N1CCCN(c2nccs2)CC1 (stereo not drawn) gave 1.898%. With CS(=O)(=O)CCCNC(=O)C1(c2cccc(Cl)c2)CC1 the screen gave 3.092%.

For Cc1nn(C)cc1S(=O)(=O)NCC(c1ccccc1Cl)N1CCCC1 (stereo not drawn) the result was -0.04271%. With CC(C)CCC(=O)NCc1ccc(N2CCCCC2)cc1 the screen gave 5.012%. Result for N#Cc1ccccc1C(=O)NCCC1CN(Cc2ccco2)CCO1 (stereo not drawn) was 2.377%. For Cc1csc(CN2C[C@@H]3CN(CC4CCOCC4)CCO[C@@H]3C2)n1 the result was 0.7623%.

For CCn1ccnc1CNC1CC(=O)N(CCc2cccc(Cl)c2)C1 (stereo not drawn) the result was 2.88%. With CC(NC(=O)N1CCCN(CC(F)F)CC1)c1ccco1 (stereo not drawn) the screen gave 0.5269%. CC1COCCN1Cc1nc(-c2ccc(F)cc2)no1 (stereo not drawn) gave 0.4426%. CC(Nc1nccc(CCC(F)(F)F)n1)c1nc(-c2ccccn2)no1 (stereo not drawn) read 5.919%.